The target of the experiment is T1, endothelial nitric oxide synthase (bovine (endogenous in BAECs)) (UniProt P29473).
T1 sequence: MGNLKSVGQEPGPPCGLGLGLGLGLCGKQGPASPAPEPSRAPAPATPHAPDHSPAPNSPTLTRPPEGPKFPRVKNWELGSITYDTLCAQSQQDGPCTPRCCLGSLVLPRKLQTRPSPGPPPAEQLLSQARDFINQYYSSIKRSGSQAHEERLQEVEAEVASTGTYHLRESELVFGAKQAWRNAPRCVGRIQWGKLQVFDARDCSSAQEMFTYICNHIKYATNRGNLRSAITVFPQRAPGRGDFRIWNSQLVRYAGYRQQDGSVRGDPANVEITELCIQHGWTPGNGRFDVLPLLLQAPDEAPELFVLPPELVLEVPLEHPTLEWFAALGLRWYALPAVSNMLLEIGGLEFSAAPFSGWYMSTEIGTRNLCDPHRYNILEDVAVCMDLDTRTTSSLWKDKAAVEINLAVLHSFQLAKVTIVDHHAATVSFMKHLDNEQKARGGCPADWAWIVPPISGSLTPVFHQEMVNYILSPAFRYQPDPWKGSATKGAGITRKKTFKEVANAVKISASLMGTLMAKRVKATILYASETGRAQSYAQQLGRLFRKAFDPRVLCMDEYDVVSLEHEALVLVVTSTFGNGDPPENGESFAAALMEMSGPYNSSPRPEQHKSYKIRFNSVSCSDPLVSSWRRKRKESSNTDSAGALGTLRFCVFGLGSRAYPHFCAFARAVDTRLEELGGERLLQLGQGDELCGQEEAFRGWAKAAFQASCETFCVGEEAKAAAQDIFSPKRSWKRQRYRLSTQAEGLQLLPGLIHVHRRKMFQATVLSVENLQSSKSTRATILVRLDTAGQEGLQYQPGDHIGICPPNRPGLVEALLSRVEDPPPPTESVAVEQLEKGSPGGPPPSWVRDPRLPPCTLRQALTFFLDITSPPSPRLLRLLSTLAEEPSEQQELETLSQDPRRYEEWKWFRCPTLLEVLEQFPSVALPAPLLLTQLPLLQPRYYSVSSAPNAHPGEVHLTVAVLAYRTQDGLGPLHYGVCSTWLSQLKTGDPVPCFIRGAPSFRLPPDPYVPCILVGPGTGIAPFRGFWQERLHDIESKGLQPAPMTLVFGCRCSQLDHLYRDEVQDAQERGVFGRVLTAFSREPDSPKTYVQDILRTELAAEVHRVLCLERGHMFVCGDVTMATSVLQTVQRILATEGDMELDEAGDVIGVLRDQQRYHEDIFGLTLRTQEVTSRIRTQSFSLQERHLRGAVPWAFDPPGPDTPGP
Put plainly: pull-down; eNOS affinity precipitated from BAEC lysate on 2',5'-ADP Sepharose beads (4 °C, 2 h; washed with PBS with 500 mM NaCl), bound proteins blotted for OGT and OGA; cells in control (5.5 mM) or low (1 mM) glucose for 6 h, also with AMPKα1 siRNA or AICAR.

These are yes or no findings as the source states them, for the method shown. In cells and extracts the contact can be indirect. A result given as binding can be weak or reduced; the word gives no strength.

On to “O-GlcNAc transferase (bovine (endogenous in BAECs)) (enzyme)”, for which the binding result was “binds”.

The values are drawn from article PMC7652922.
